Some of the results follow. Further columns of the screen follow, without active or inactive calls. Most of these compounds were active or inconclusive in the main read-out, so they are no random draw. Words in brackets tell the shape of the fitted curve; partial curves, single points and poor fits give uncertain potencies.
Test: qHTS Assay for Lipid Storage Modulators in Drosophila S3 Cells;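 for cell number change: cells counted by Cell Tracker Red CMTPX staining in the red channel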
Details: BODIPY lipid droplet fluorescence, 18-24 h; for cell number change: measured here: cell count max response, cells fed with added oleic acid
How it was run: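 Drosophila S3 cells loaded with oleic acid (400 uM, as added) and compounds at several concentrations; lipid droplets imaged by 488-nm laser-scanning cytometry, 500–530 nm intensity and object ratio to cell channel. Percent activity normalized to 20 uM Triacsin C.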

[1] = measured here: cell number channel AC50, cells fed with added oleic acid
[2] = measured here: lipid fluorescence (Fed channel) AC50, cells fed with added oleic acid

Structure (SMILES) | cell number change | AC50 [1] | AC50 [2]
Cc1cc(C)cc(-n2ncc3c2CCCC3NC(=O)CCN2CCCC2=O)c1 (stereo not drawn) | -1.16% | 4.11 µM [falling, single point] | 
O=[N+]([O-])c1ccccc1-c1ccc(C(=S)N2CCCCC2)o1 | 5.54% |  | 1.64 µM [rising, partial curve, poor fit]
CCCn1c(-c2ccc(F)cc2)n[nH]c1=S | -20.6% |  | 
COc1ccc(-n2[nH]c(C)cc2=O)cc1 | 11.1% |  | 0.13 µM [falling, full curve, poor fit]
CC1CN(C(=O)c2ccccc2NS(=O)(=O)c2cccc([N+](=O)[O-])c2)CC(C)O1 (stereo not drawn) | 13.2% | 6.51 µM [rising, single point] | 0.461 µM [falling, full curve]
Cc1ccc(CC2C(=O)N(CC(=O)O)C(=O)C2C)cc1 (stereo not drawn) | -8.63% |  | 29.1 µM [rising, single point]
CC(=O)Nc1ccc(N(C(=O)CNC(=O)c2ccco2)C(C(=O)NC2CCCC2)c2ccco2)cc1 (stereo not drawn) | 5% |  | 1.03 µM [falling, single point]
NC(=O)c1ccsc1NC(=O)CSc1ccccc1F | 26.4% |  | 3.66 µM [rising, partial curve]
COc1ccc(N2CCN(C(CNC(=O)C(C)(C)C)c3ccco3)CC2)cc1 (stereo not drawn) |  | 0.651 µM [falling, single point] | 
COc1ccc(C(=O)NNC(=O)C2(C)CC2(Br)Br)cc1 (stereo not drawn) | 11.8% |  | 
CC1Cc2ccccc2N1C(=O)c1ccc2nccnc2c1 (stereo not drawn) | -2.89% |  | 29.1 µM [rising, partial curve, poor fit]
Cc1ccc(C)n1-c1sccc1C(=O)O | -23.6% |  | 18.4 µM [falling, single point]
COc1ccc(NS(=O)(=O)c2cccc(NC(=O)CCC(=O)c3cccs3)c2)cc1 | 14.8% |  | 
CC1(C)CC2CC(C)(CN2C(=O)c2cc(-c3ccccc3)on2)C1 (stereo not drawn) | -6.94% |  | 6.51 µM [falling, single point]
Cc1ccc(S(=O)(=O)[N-]c2nc3ccccc3nc2-[n+]2cc(C)cc(C)c2)cc1 | 6.83% |  | 3.66 µM [rising, partial curve, poor fit]
CC1=NN(C(=O)c2ccccc2F)C(O)(c2ccc(Cl)cc2)C1 (stereo not drawn) | -17.3% |  | 29.1 µM [falling, single point]
CC1(C)NC(=O)N(CC(O)CN(c2ccccc2)S(=O)(=O)c2ccc([N+](=O)[O-])cc2)C1=O (stereo not drawn) | -23.2% |  | 
Nc1ccccc1Nc1cc(-c2ccccc2)nn1-c1ccccc1 | -25.7% |  | 14.6 µM [falling, single point]
CC1CCN(C(=O)CNC(=O)Cc2ccccc2)CC1 | 66.8% | 29.1 µM [rising, single point] | 0.461 µM [rising, partial curve, poor fit]
O=C1CSC(c2ccccc2Cl)N1 (stereo not drawn) | 34% | 1.84 µM [rising, full curve] | 2.06 µM [rising, full curve]

Structure (SMILES) | cell number change | AC50 [1] | AC50 [2]
CCCCCCCCc1c(O)nc(-n2[nH]c(C)c(CCO)c2=O)[nH]c1=O | -31.2% | 4.11 µM [falling, full curve] | 29.1 µM [falling, single point]
CCC(NC(=O)c1cc(COc2ccc(C)nc2)on1)c1ccc(C)cc1 (stereo not drawn) | -4.86% |  | 29.1 µM [falling, single point]
Cc1ccccc1OCCCCn1cnc2ccccc21 | -68.3% | 29.1 µM [falling, single point] | 11.6 µM [falling, single point]
Cc1csc2ncc(C(=O)Nc3ccc(C(F)(F)F)cc3)c(=O)n12 | 61% | 0.13 µM [rising, full curve] | 2.59 µM [rising, full curve]
COC(=O)c1c(NC(=O)c2c(-c3ccccc3Cl)noc2C)sc2c1CCC2 | 146% | 0.366 µM [rising, full curve] | 0.146 µM [rising, full curve]
CCN1C(=O)C(O)(CC(=O)C(C)(C)C)c2cc(Br)ccc21 (stereo not drawn) | 10.6% |  | 0.82 µM [falling, single point]
CN(Cc1ccccc1)c1ccc([N+](=O)[O-])cc1C(=O)O | -20.6% |  | 
Cc1ccnc2nc(C(=O)OCCOc3ccccc3)nn12 | -7.21% |  | 0.0259 µM [falling, full curve]
CC(C)N(Cc1nc(-c2ccccc2)no1)C(=O)COc1ccccc1 | 137% | 9.2 µM [rising, partial curve] | 7.31 µM [rising, partial curve]
CCOc1ccccc1C(=O)OCC(=O)NCCc1ccc(OC)cc1 | 40.5% | 0.0164 µM [rising, full curve, poor fit] | 25.9 µM [rising, partial curve, poor fit]
CN(C1=C(N2CCCCC2)C(=O)c2ccccc2C1=O)c1ccccc1 | -88.7% | 4.61 µM [falling, full curve] | 16.4 µM [falling, partial curve]
NC(=O)c1c(NC(=O)c2ccc([N+](=O)[O-])o2)sc2c1CCCC2 | -0.952% | 0.0731 µM [rising, partial curve, poor fit] | 
CC(C)CNC(=O)C(=O)NCc1ccccc1 | 8.1% |  | 0.731 µM [rising, partial curve]
Cc1cccc(NC(=O)c2ccc3c(=O)n(CC4CCCO4)c(=S)[nH]c3c2)c1 (stereo not drawn) |  |  | 2.59 µM [falling, full curve]
Cc1cccc(N2CCN(c3ccc(C(N)=O)cc3[N+](=O)[O-])CC2)c1C | 18.4% |  | 6.51 µM [falling, single point]
Cc1ccc(NC(=O)c2cccc(S(=O)(=O)N3CCCCC3)c2)cc1 | -11.8% |  | 
Cc1[nH][nH]c(=O)c1C=NCc1cccc(C(F)(F)F)c1 | -19.1% |  | 
CCOc1ccc(Br)cc1S(=O)(=O)N1CCC(C(N)=O)CC1 | 82.4% | 20.6 µM [rising, single point] | 
CCc1nnc(NS(=O)(=O)c2ccc(N3C(=O)C4CC=C(Cl)CC4C3=O)cc2)s1 (stereo not drawn) | 6.79% |  | 29.1 µM [rising, single point]
CCOC(=O)CSc1nc(-c2ccncc2)ccc1C#N | 0.6% |  | 0.326 µM [rising, partial curve, poor fit]

Structure (SMILES) | cell number change | AC50 [1] | AC50 [2]
CSc1nc(-c2ccccc2)nc(SC)c1C(C)=O | 1.35% |  | 29.1 µM [rising, single point]
O=C(Nc1ccncc1)c1ccc(Cl)c(S(=O)(=O)N2CCCCC2)c1 | -53.8% | 20.6 µM [falling, partial curve] | 3.66 µM [falling, partial curve, poor fit]
O=C(OCCN1CCCCC1)c1cc2ccccc2o1 | 36.1% | 32.6 µM [rising, single point] | 5.8 µM [rising, single point]
O=C(CN1CCCC1)NC(=O)NC1CCCC1 | 60.9% | 29.1 µM [rising, single point] | 
OCCN1CCN(C(=S)c2ccc(Cl)c(Cl)c2)CC1 | -165% | 29.1 µM [falling, single point] | 
CC(C)N(C(=NCc1ccccc1)NC(=O)c1ccccc1)C(C)C |  |  | 32.6 µM [rising, single point]
COc1ccc(OC)c(NC(=O)CS(=O)(=O)Cc2ccccc2)c1 | 0.552% |  | 29.1 µM [rising, single point]
O=C(Nc1ccc(S(=O)(=O)Nc2nccs2)cc1)C1CC(=O)N(c2ccc(Cl)cc2)C1 (stereo not drawn) | 16.7% |  | 
Cc1ccc2c(COC(=O)c3ccccc3F)cc(=O)oc2c1 | 45.7% | 25.9 µM [rising, single point] | 29.1 µM [rising, single point]
CCN=C1S/C(=C\c2cn(CC)c3ccccc23)C(=O)N1CC | 18.1% |  | 1.84 µM [rising, full curve]
CC(C)N1CCN(Cc2cccn2-c2nccs2)CC1CCO (stereo not drawn) | 7.6% |  | 16.4 µM [falling, single point]
CCCCC(=O)Nc1ccc(NC(=O)C2CC2)cn1 | 24.8% |  | 13 µM [rising, partial curve]
CCCCn1c(SCC(=O)N2CCCCC2)nc2cc(S(N)(=O)=O)ccc21 | -28.9% |  | 29.1 µM [falling, single point]
Cc1cc(C)cc(-n2nnc(C(=O)NCc3ccccc3Cl)c2N)c1 | -6.32% |  | 23.1 µM [falling, single point]
COC(=O)C1=C(C)N(C)C(C)=C(C(=O)OC)C1c1cccc(Br)c1 | 4.69% |  | 2.91 µM [rising, partial curve]
Cc1csc2ncc(C(=O)Nc3cccc(C(F)(F)F)c3)c(=O)n12 | 68.4% | 23.1 µM [rising, partial curve, poor fit] | 20.6 µM [rising, partial curve]
O=C(Nc1nc(-c2ccc(S(=O)(=O)N3CCOCC3)cc2)cs1)c1ccccc1 | -18.2% |  | 20.6 µM [falling, single point]
O=C(CSC(=S)N1CCCC1)N1CCN(S(=O)(=O)c2cccc(F)c2)CC1 | 21% |  | 18.4 µM [falling, single point]
Cc1nc(C(=O)N2CCCC(C(=O)c3ccc(Cl)cc3)C2)cs1 (stereo not drawn) | 16.7% |  | 
CN(C)CCN1C(=O)c2oc3ccc(F)cc3c(=O)c2C1c1ccncc1 (stereo not drawn) | -22.8% | 0.651 µM [falling, full curve, poor fit] | 16.4 µM [falling, partial curve]

Only AC50 [1] and cell number change (4 entries from above):
Structure (SMILES)	AC50 [1]	cell number change
CC1=NN(C(=O)c2ccccc2F)C(O)(c2ccc(Cl)cc2)C1 (stereo not drawn)		-17.3%
CC1(C)NC(=O)N(CC(O)CN(c2ccccc2)S(=O)(=O)c2ccc([N+](=O)[O-])cc2)C1=O (stereo not drawn)		-23.2%
Nc1ccccc1Nc1cc(-c2ccccc2)nn1-c1ccccc1		-25.7%
CC1CCN(C(=O)CNC(=O)Cc2ccccc2)CC1	29.1 µM [rising, single point]	66.8%
